Experimental data: PubChem BioAssay AID504808 (Drosophila RNAi Screening Center, 2011)

- Assay: 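Genes whose loss lifts activity of an E2F-responsive reporter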 (primary screen)
- System: Drosophila S2 cells
- Knock-down reagent: long dsRNA against Drosophila genes
- Measured: 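Firefly luciferase driven by E2F sites, normalised to Renilla luciferase on the same minimal promoter, measured by plate reader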
- Reading the numbers: E2F firefly: higher = more E2F reporter activity; Renilla normaliser: higher = more normaliser reporter signal
- Hit rule: 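a knock-down counted as active when the firefly/Renilla E2F signal rose above 50%, a threshold chosen arbitrarily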
In all, the deposit lists about 21,000 reagents; below is an unselected part of those that have a named target and a result. Over the whole deposit, 18 (0.084%) got an active call. 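Raw counts without plate normalisation, one of two replicates; the ratio scores behind the calls were not deposited.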 No sequences are given here. The record does not give: the amount of reagent, the time to read-out.

| predicted target | dsRNA | E2F firefly, rep 1 | Renilla normaliser, rep 1 | call |
| --- | --- | --- | --- | --- |
| CG8329 (GeneID 39123) | DRSC10978 | 70759 | 4085 | inactive |
| Elo68beta (GeneID 39245) | DRSC09860 | 1.21e5 | 6471 | inactive |
| Cpr49Ad (GeneID 36349) | DRSC07284 | 92115 | 4011 | inactive |
| Or30a (GeneID 34236) | DRSC03385 | 1.69e5 | 5991 | inactive |
| CG9269 (GeneID 41663) | DRSC16465 | 1.22e5 | 6815 | inactive |
| CG32407 (GeneID 38667) | DRSC09789 | 81960 | 3363 | inactive |
| RpS28b (GeneID 31897) | DRSC18258 | 5675 | 980 | inactive |
| CG17486 (GeneID 3355138) | DRSC07752 | 72219 | 3302 | inactive |
| raskol (GeneID 32754) | DRSC19202 | 90403 | 3479 | inactive |
| raskol (GeneID 32754) | DRSC19731 | 1.64e5 | 6272 | inactive |
| raskol (GeneID 32754) | DRSC19964 | 1.54e5 | 6067 | inactive |
| raskol (GeneID 32754) | DRSC19967 | 93264 | 3636 | inactive |
| CG18094 (GeneID 35232) | DRSC02655 | 1.06e5 | 4057 | inactive |
| pcs (GeneID 36674) | DRSC07042 | 2981 | 186 | inactive |
| CG5535 (GeneID 39990) | DRSC10514 | 68148 | 3426 | inactive |
| Plc21C (GeneID 33204) | DRSC00773 | 86999 | 3762 | inactive |
| Cyp6a17 (GeneID 45556) | DRSC07378 | 102 | 37 | inactive |
| CG15125 (GeneID 37258) | DRSC06547 | 1.47e5 | 5069 | inactive |
| bys (GeneID 31701) | DRSC18748 | 7274 | 816 | inactive |

Continued (2 carried over from the part before).
| predicted target | dsRNA | E2F firefly, rep 1 | Renilla normaliser, rep 1 | call |
| --- | --- | --- | --- | --- |
| CG15125 (GeneID 37258) | DRSC06547 | 1.47e5 | 5069 | inactive |
| bys (GeneID 31701) | DRSC18748 | 7274 | 816 | inactive |
| CG3165 (GeneID 33503) | DRSC00573 | 81730 | 3581 | inactive |
| NetB (GeneID 32400) | DRSC20262 | 8000 | 824 | inactive |
| Pyroxd1 (GeneID 35296) | DRSC02098 | 95761 | 3775 | inactive |
| snRNP-U1-C (GeneID 42274) | DRSC15804 | 1.08e5 | 6976 | inactive |
| MED28 (GeneID 43079) | DRSC15721 | 83831 | 5322 | inactive |
| Arp1 (GeneID 41566) | DRSC14118 | 1.52e5 | 6144 | inactive |
| CG34299 (GeneID 5740430) | DRSC13974 | 80807 | 2059 | inactive |
| CG1789 (GeneID 31812) | DRSC18140 | 7582 | 884 | inactive |
| CG15059 (GeneID 32806) | DRSC19633 | 2.46e5 | 6734 | inactive |
| CG1233 (GeneID 38063) | DRSC08269 | 77059 | 3359 | inactive |
| zen2 (GeneID 40827) | DRSC12633 | 1.17e5 | 6954 | inactive |
| CG5543 (GeneID 37768) | DRSC04511 | 73309 | 2883 | inactive |
| Cpr67Fb (GeneID 39225) | DRSC10314 | 1.12e5 | 5948 | inactive |
| sun (GeneID 44046) | DRSC20140 | 2.16e5 | 7058 | inactive |
| CG4953 (GeneID 34373) | DRSC02792 | 76416 | 4162 | inactive |
